# In PMC1626108:
# Sequences of proteins named here, by UniProt entry; tags and fusion partners are left off.
# UniProt Q9ERU9: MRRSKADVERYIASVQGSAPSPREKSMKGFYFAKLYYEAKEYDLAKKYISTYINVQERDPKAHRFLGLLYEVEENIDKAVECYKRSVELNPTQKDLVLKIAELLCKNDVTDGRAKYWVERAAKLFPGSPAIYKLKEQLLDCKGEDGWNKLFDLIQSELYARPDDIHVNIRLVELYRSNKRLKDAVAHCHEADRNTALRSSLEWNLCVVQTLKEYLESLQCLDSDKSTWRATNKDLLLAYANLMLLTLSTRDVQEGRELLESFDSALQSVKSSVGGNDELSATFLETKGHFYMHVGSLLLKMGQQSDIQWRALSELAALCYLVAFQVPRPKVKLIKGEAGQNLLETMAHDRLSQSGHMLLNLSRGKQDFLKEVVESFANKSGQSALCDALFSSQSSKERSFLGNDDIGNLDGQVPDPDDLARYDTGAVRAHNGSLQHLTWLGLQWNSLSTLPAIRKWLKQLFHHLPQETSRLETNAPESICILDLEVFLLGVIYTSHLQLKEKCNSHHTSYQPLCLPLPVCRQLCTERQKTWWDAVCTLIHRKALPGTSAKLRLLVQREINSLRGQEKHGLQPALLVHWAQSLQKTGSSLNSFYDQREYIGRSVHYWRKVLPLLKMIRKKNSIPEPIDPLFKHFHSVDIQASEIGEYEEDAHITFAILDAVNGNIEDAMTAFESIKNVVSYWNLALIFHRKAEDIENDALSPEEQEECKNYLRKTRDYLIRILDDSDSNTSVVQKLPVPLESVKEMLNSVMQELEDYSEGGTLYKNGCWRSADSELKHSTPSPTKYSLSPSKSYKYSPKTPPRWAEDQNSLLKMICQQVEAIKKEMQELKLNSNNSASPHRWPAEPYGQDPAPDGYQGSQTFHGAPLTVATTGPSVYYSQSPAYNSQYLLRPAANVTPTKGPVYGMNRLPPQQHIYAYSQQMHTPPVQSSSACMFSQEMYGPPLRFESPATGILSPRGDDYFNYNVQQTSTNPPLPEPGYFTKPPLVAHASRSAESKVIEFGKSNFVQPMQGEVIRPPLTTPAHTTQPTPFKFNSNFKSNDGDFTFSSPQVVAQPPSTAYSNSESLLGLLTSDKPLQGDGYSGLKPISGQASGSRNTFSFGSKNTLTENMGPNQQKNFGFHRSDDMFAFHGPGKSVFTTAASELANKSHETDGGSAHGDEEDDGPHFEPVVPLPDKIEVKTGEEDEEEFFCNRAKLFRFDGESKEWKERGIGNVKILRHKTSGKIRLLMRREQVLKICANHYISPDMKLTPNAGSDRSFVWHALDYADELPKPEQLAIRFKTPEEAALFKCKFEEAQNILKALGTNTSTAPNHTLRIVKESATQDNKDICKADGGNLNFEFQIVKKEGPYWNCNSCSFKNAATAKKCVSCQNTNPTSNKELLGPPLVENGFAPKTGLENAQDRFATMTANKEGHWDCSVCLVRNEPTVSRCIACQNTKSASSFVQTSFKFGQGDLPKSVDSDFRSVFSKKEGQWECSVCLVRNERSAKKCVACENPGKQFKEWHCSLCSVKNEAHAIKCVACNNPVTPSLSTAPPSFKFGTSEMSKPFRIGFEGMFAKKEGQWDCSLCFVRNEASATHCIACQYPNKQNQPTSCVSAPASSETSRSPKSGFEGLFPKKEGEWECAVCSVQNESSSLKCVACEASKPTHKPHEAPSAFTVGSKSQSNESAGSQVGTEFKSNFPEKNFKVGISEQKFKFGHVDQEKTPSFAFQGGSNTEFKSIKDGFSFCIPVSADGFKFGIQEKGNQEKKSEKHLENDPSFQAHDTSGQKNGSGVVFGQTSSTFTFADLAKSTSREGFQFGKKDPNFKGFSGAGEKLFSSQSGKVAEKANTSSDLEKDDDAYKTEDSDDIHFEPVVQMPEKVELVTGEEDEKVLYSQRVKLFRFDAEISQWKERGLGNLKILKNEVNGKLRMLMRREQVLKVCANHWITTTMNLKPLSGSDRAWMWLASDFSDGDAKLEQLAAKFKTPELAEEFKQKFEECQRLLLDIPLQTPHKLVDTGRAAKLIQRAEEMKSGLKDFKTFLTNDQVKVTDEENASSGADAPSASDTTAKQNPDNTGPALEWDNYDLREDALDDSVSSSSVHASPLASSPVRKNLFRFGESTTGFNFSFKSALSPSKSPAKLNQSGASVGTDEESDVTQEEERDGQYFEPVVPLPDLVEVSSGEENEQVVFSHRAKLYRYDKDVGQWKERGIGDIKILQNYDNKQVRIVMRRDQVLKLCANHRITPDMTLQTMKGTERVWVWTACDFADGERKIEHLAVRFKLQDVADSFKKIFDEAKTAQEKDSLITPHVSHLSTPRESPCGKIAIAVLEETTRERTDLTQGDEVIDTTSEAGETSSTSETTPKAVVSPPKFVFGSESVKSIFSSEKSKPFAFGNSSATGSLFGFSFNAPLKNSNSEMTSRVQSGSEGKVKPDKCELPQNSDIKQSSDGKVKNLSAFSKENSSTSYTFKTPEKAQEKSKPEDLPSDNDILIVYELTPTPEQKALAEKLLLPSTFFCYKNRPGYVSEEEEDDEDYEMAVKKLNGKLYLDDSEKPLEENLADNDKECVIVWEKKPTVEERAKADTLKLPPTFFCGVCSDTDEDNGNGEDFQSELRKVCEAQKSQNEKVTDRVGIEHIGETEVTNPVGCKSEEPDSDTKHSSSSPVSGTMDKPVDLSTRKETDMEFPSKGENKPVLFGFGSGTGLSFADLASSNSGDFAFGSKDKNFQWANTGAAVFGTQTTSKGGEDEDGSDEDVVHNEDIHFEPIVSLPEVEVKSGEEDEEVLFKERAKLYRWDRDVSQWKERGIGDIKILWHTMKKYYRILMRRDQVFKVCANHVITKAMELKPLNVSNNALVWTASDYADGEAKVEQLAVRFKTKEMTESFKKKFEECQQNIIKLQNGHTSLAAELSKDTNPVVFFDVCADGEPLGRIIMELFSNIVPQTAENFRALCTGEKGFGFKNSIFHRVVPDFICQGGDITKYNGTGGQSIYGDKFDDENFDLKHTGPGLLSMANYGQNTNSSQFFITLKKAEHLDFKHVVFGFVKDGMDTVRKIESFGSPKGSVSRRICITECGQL
# These are yes or no findings as the source states them, for the method shown. Binding seen in cells or lysates may run through a third protein. For some assays here: Binding can be weak; no strength is given. For some assays here: Where a sequence is shown, tags or fusion partners need not be part of it.
# Columns and labels:
# [1] = target: T1, GST-LDZIP, leucine zipper domain of human RanBP2 (residues 447-483) fused to GST (human) (UniProt P49792); experiment: pull-down; GST-fused proteins (0.5-2.2 uM) with CHAPS-solubilized retinal extracts; co-precipitates analysed by Western blot; only the target purified
# T1 sequence: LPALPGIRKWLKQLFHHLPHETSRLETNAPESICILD
# [2] = target: Ran-binding protein 2 (RanBP2), endogenous in retinal extracts (UniProt Q9ERU9); experiment: co-IP; retinal extracts; immunoprecipitation with 5 ug of antibody against HKI, mHsp70, Cox11 or RanBP2; Western blot
substance,measurement,setting,value
Hexokinase type I (HKI) (from UniProt P17710-3) (enzyme),binding,[1],no binding (tested: 0.5–2.2 μM of GST-fused proteins)
same,binding,[2],binds
